# Reference: PubChem BioAssay (EPA / NIEHS)
# Sequences of proteins named here, by UniProt entry; tags and fusion partners are left off.
# UniProt P13631, whole entry, looked up: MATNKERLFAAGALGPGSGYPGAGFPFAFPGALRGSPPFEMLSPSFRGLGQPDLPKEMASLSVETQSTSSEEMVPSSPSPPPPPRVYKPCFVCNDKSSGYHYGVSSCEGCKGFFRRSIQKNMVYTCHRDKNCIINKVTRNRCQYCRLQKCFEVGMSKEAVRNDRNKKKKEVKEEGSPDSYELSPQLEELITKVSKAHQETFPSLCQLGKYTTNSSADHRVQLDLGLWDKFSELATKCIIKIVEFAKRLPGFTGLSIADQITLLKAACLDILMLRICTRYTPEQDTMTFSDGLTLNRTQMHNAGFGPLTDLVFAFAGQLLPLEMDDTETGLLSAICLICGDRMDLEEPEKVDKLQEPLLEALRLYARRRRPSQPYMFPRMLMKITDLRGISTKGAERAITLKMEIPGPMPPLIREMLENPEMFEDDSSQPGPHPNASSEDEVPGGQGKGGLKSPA
# Where “and” joins values, the source holds several entries; their conditions need not be identical. Identical values can stand only once. Inconclusive means that the source gave no clear call. Such entries were picked first, then a sample of the others. Potencies of inconclusive entries are doubtful fits and often do not repeat. A structure can be active in one record and inactive in another. Calls of active or inactive are those of the source. Rule for the calls: active = hit-call score of the fitted dose curve at least 0.9, where 1 is the maximum; inconclusive = response in the unintended direction; inactive = score below 0.9.
# Molecular target: human Retinoic Acid Receptor gamma (RARg), RARG (gene 5916) (UniProt P13631)
# Experiment: ATG_RARg_TRANS: Attagene TRANS-FACTORIAL HepG2 Assay for human Retinoic Acid Receptor gamma (RARg) (AID 2283009);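 for AC50: AC50 is for reporter induction above DMSO meaning RARg activation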
# Protocol: ATG_TRANS is a cell-based, multiplexed-readout assay that uses HepG2, a human liver cell line, with measurements taken at 24 hours after chemical dosing in a 24-well plate.ATG_RARg_TRANS is one of 30 assay component(s) measured or calculated from the ATG_TRANS assay. It is designed to make measurements of mRNA induction, a form of inducible reporter, as detected with fluorescence intensity signals by Reverse transcription polymerase chain reaction (RT-PCR) and Capillary electrophoresis technology.Data from the assay component ATG_RARg_TRANS was analyzed into 1 assay endpoint. This assay endpoint, ATG_RARg_TRANS, was analyzed in the positive analysis fitting direction relative to DMSO as the negative control and baseline of activity. Using a type of inducible reporter, measures of mRNA for gain-of-signal activity can be used to understand the reporter gene at the transcription factor-level as they relate to the gene RARG. Furthermore, this assay endpoint can be referred to as a primary readout, because this assay has produced multiple assay endpoints where this one serves a reporter gene function. To generalize the intended target to other relatable targets, this assay endpoint is annotated to the nuclear receptor intended target family, where the subfamily is non-steroidal.
# Human liver HepG2 cells are transiently transfected with multiple reporter transcription units (MRTUs) in 6-well plates using FuGene 6 reagent (Roche; 3 ml FuGene/1 mg DNA). The MRTU constructs are regulated by a cis-regulating element (promoter). […] A major difference between the CIS and TRANS system is that in CIS activities of endogenous TFs are measured, whereas the TRANS assay evaluates changes in activities of exogenous, chimeric NR-Gal4 proteins. […] At the end of 24 hour incubation, total RNA was isolated using TriZol reagent (Invitrogen). The isolated RNA is then reverse-transcribed using oligo(dT) primer and Mo-MLV reverse transcriptase (Invitrogen) with DNAse I (Ambion) treatment for 30 min. The one-tenth of the produced cDNA was amplified by PCR using Taq DNA polymerase (Invitrogen) and two reporter sequence-specific primers. The PCR products were fluorescently labeled by primer extension with 6-arboxyfluorescein (6-FAM) 5'-labeled reporter sequence-specific primer (2 min at 95 C, 20 s at 68 C and 10 min at 72 C) and these products were digested with 5U of HpaI (New England Biolabs) for 2h at 37 C. […] The raw capillary electrophoresis data was processed using Attagraph software (Attagene).
Compound,AC50,outcome
CCCCCc1ccc(Cl)cc1,inconclusive: 0.807 µM,
CCN(CC)C(=O)c1cc(S(=O)(=O)Cc2ccccc2)c(N2CCC(c3ccccc3)CC2)cc1N(CC)CCN(C)C,,inactive
c1cc[nH]c1,,inactive
CCC(C)C(=O)OCCc1ccccc1 (stereo not given),inconclusive: 0.427 µM,
CC/C=C\CCOC(C)=O,inconclusive: 100 µM,
CCc1c(C(=O)NN2CCCCC2)nn(-c2ccc(Cl)cc2Cl)c1-c1ccc(Br)cc1,inconclusive: 0.688 µM,
CCC(=O)OCCOc1ccccc1,inconclusive: 175 µM,
O=c1n(CCO)c(=O)n(CCO)c(=O)n1CCO,,inactive
O=C(O)CCC(F)(F)C(F)(F)C(F)(F)C(F)(F)C(F)(F)F,inconclusive: 150 µM and inconclusive: 227 µM,
OCC(F)(F)C(F)(F)C(F)(F)C(F)F,inconclusive: 150 µM,inactive
O=C(O)CN(CC(=O)O)CC(=O)O,,inactive
COc1ccc(S(=O)(=O)N2C(=O)[C@@](c3ccccc3OC)(N3C[C@H](O)C[C@H]3C(=O)N(C)C)c3cc(Cl)ccc32)c(OC)c1,,inactive
C1CNCCN1,,inactive
CCCC(=O)OCc1ccccc1,inconclusive: 19.8 µM,
C=CC/C=C/C/C=C/C/C=C/C,,inactive
O=c1[nH]sc2ccccc12,inconclusive: 100 µM,
COc1ccccc1NC(=O)CC(C)=O,inconclusive: 182 µM,
CCN(Cc1cccnc1)C(=O)c1cccc(Cl)c1[C@]1(C)C(=O)N(Cc2ccc(OC)cc2OC)c2ccc(Cl)cc21,,inactive

Compound,AC50,outcome
COC(=O)c1sccc1S(N)(=O)=O,,inactive
CS(=O)(=O)OCCCCOS(C)(=O)=O,inconclusive: 24.4 µM,
CC(C)CCOCc1ccccc1,inconclusive: 100 µM,
COC(=O)c1ccc(O)cc1,inconclusive: 2.13 µM,
O=C1c2c(O)ccc(Nc3ccc(CCO)cc3)c2C(=O)c2c([N+](=O)[O-])ccc(O)c21,,inactive
Cc1cc(C(=C2C=CC(=Nc3ccc(S(=O)(=O)O)cc3)C=C2)c2ccc(Nc3ccc(S(=O)(=O)O)cc3)cc2)cc(S(=O)(=O)O)c1N,inconclusive: 70 µM,
OCCCCC(F)(F)C(F)(F)C(F)(F)C(F)(F)F,,inactive
C=CCCCCCCCCC(=O)O,,inactive
CC(CC=O)CCCC(C)(C)O (stereo not given),inconclusive: 169 µM,
CC(C)c1cc(C(C)C)cc(C(C)C)c1,inconclusive: 173 µM,
COC(=O)c1ccccc1C(=O)O,,inactive
N#Cc1ccc(C2CCCc3cncn32)cc1 (stereo not given),,inactive
O=S(=O)(O)c1ccccc1C=Cc1ccc(-c2ccc(C=Cc3ccccc3S(=O)(=O)O)cc2)cc1,inconclusive: 0.198 µM,
c1ccc(C[P+](c2ccccc2)(c2ccccc2)c2ccccc2)cc1,,inactive
CCCCCCCCCCCCO,,inactive
CCCCCCOC(=O)C(C)CC (stereo not given),inconclusive: 100 µM,
CCCCCCCCCCCCCC[N+](C)(C)C,active: 36.6 µM,inactive
